# Reference: patent US20140186875A1, “NOVEL OPTICAL LABELING MOLECULES FOR PROTEOMICS AND OTHER BIOLOGICAL ANALYSIS” (Montana State University, priority 2007, published 2014)
# Test system: E. coli cytosolic proteins
# Assay: Number of protein spots detected on 2D gels at increasing dye labeling levels
# Conditions: 24 cm 3-10 2D gel, 532 nm laser
structure (smiles),measurement,setting,value
"CC1=CC(CCC(=O)NC(CS(=O)(=O)[O-])C(=O)NCCN(C)CCCCCC(=O)ON2C(=O)CCC2=O)=[N+]2C1=Cc1c(CCC[N+](C)(C)C)cc(-c3ccccc3)n1[B-]2(F)F (stereo not shown) [Compound 43, 4,4-difluoro-1-methyl-5-phenyl-7-(3-trimethylammonium)-propyl-4-bora-3a,4a,diaza-s-indacene-3-(6-(N-methyl-N-(2-(2-propionamido-3-sulfonatepropionamido)ethyl)amino))hexanoic acid, succinimidyl ester hydrotrifluoroacetate]",number of protein spots detected,1× labeling (400 pmol per 50 μg protein),"1,245"
same,number of protein spots detected,5× labeling (2 nmol per 50 μg protein),"3,252"
same,number of protein spots detected,10× labeling (4 nmol per 50 μg protein),"4,005"
same,number of protein spots detected,20× labeling (8 nmol per 50 μg protein),"4,825"
